This note sets out measurements from the supplement of paper PMC10398353.

Structures are written as SMILES. “And” between values parts separate entries of the source, which are not always exact repeats. Equal entries are not always repeated. Structures can show the parent of a compound that is named as a salt. ± gives the standard deviation of the averaged measurements. Some of the results follow. The data scatter; read single values as rough.

The test system of this test is Salmonella enterica serovar Typhimurium ST313 D23580. The test can be described thus: normalized bacterial growth (OD600 20 h minus 0 h, interquartile-mean normalized) (fraction of plate interquartile mean); higher = more bacterial growth (less inhibition). As to conditions: LPM (pH 5.8, low phosphate, low Mg2+), concentration: 10 µM, temperature: 37 °C.
Regarding `C[C@@H]1[C@H](O)[C@@H](C)/C=C/C=C/C=C/C=C/C=C/C=C/C=C/[C@H](O[C@@H]2O[C@H](C)[C@@H](O)[C@H](N)[C@@H]2O)C[C@@H]2O[C@](O)(C[C@@H](O)C[C@@H](O)[C@H](O)CC[C@@H](O)C[C@@H](O)CC(=O)O[C@H]1C)C[C@H](O)[C@H]2C(=O)O`, the normalized bacterial growth is 1.45 ± 0.062.
For `COc1cc(/C=C/C(=O)c2ccc(O)cc2O)ccc1O`, the normalized bacterial growth worked out at 1.14.
`CCOC(=O)C(C)(C)Oc1ccc(Cl)cc1` [Clofibrate]: the normalized bacterial growth was determined as 1.4.
The figure for `c1cnc2c(c1)ccc1cccnc12` ["1,10-Phenanthroline monohydrate"] is 0.0787; for `CC(C)NC[C@H](O)COc1ccc(CC(N)=O)cc1` [S(-)-Atenolol] it is 1.14.
In the case of `CC(C)NC[C@H](O)COc1ccc(CC(N)=O)cc1` [(S)-(-)-Atenolol] it was 1.27.
`N[C@H](CO)C(=O)O` [D-Serine] had a normalized bacterial growth of 0.994.
The figure for `C=CC(C)(O)CCC1C(=C)CC(O)C2C(C)(C)CCCC12C` (stereo unspecified) is 1.64.
The figure for `O=S(=O)(c1cccc2cnccc12)N1CCNCC1` is 1.11; for `NC(Cc1cccc(-c2ccccc2CP(=O)(O)O)c1)C(=O)O` (stereo not drawn) [Phenylbenzene-omega-phosphono-alpha-amino acid] it is 1.04; for `CC(=O)N(O)CCCCCNC(=O)CCC(=O)N(O)CCCCCNC(=O)CCC(=O)N(O)CCCCCN` it is 0.414.
The figure for `C[N+]1(C)CCC[C@H]1C(=O)[O-]` is 1.09.
As for `CC(C)/N=c1\cc2n(-c3ccc(Cl)cc3)c3ccccc3nc-2cc1Nc1ccc(Cl)cc1`, the normalized bacterial growth is 0.772.
As to `CCNC(=O)CC[C@H](N)C(=O)O`, the normalized bacterial growth was found to be 1.17.
The compound `C[N+](C)(C)CCCCCNCC12CC3CC(CC(C3)C1)C2` had a normalized bacterial growth of 1.02.
The figure for `CCOC(=O)[C@]12CC1/C(=N\O)c1ccccc1O2` (stereo partly specified) is 1.25; for `CCCCC1OC(=O)C2=CCCCC21` (stereo unspecified) it is 1.27.
In the case of `CC(C)(C(=O)c1cccnc1)c1cccnc1` [Metyrapone] it was 1.49.
In the case of `NCCCCNCCCN` [Spermidine trihydrochloride] it was 1.1; in that of `CN1CC(=O)NC1=N`, 1.04.
The compound `Nc1ccc(-c2nc3ccc(-c4nc5ccc(N)cc5[nH]4)cc3[nH]2)cc1` returned a normalized bacterial growth of 0.963.
Compound `COc1cc(-c2coc3cc(OC)c(OC)c(OC)c3c2=O)cc(OC)c1OC` had a normalized bacterial growth of 0.609.
As to `C[C@]12CCC3c4ccc(OC(=O)c5ccccc5)cc4CCC3C1CCC2=O` (stereo partly specified), the normalized bacterial growth turned out to be 0.791.
`Cn1ccnc1S` yielded a normalized bacterial growth of 1.26.
Compound `Cn1ccnc1S` [Methimazole] yielded a normalized bacterial growth of 0.962.
The figure for `Nc1c(Br)cc(Br)cc1CN[C@H]1CC[C@H](O)CC1` is 0.889.
In the case of `Nc1c(Br)cc(Br)cc1CN[C@H]1CC[C@H](O)CC1` [Ambroxol hydrochloride] it was 1.19.
In the case of `CC(=O)NC1[C@@H](O)OC(CO)[C@@H](O)[C@H]1O[C@H](C)C(=O)O` (stereo partly specified) ["Muramic acid, N-acetyl"] it was 1.14; in that of `Oc1ccc(Cl)c2cccnc12`, 0.534.
As for `CN1CCc2ccccc2Cc2[nH]c3ccccc3c2CC1`, the normalized bacterial growth was 0.888.
`CC(C)(Sc1cc(C(C)(C)C)c(O)c(C(C)(C)C)c1)Sc1cc(C(C)(C)C)c(O)c(C(C)(C)C)c1` registered a normalized bacterial growth of 1.15.
The figure for `CCN1C(=O)NC(c2ccccc2)C1=O` (stereo unspecified) [Ethotoin] is 0.955.
In the case of `COc1ccccc1N1CCN(CC(O)COc2cccc3ccccc23)CC1` (stereo unspecified) [Naftopidil dihydrochloride] it was 0.81; in that of `CN1CCCC(CC2c3ccccc3Sc3ccccc32)C1` (stereo unspecified) [Metixene hydrochloride], 0.922; in that of `CN1CCC(=C2c3ccccc3CC(=O)c3sccc32)CC1` [Ketotifen fumarate], 1.11.
As to `COc1ccc2c(c1)N(C[C@H](C)CN(C)C)c1ccccc1S2` [Methotrimeprazine maleat salt], the normalized bacterial growth was determined as 0.938.
As for `CC[C@H](CC[C@@H](C)[C@H]1CC[C@H]2[C@@H]3CC=C4C[C@@H](O)CC[C@]4(C)[C@H]3CC[C@]12C)C(C)C` [beta-SITOSTEROL], the normalized bacterial growth was 0.964.
The figure for `CCCCC[C@H](CC(=O)O)C(=O)O` is 1.3; for `CCCN(CCC)C(=O)C(CCC(=O)O)NC(=O)c1ccccc1` (stereo unspecified) [Proglumide] it is 1.01.
`COc1cc(OC)c(C(=O)CCCN2CCCC2)c(OC)c1` [Buflomedil hydrochloride] displayed a normalized bacterial growth of 0.991.
The figure for `CC(=O)NCCc1c[nH]c2ccc(O)cc12` [N-Acetyl-5-hydroxytryptamine] is 1.02; for `O=c1ccc2ccc(O)c(O)c2o1` [Daphnetin] it is 1.07.
In the case of `O=C[C@H](O)[C@H](O)CO` it was 1.36; in that of `OCC1=C[C@@H](O)[C@@H]2C=CO[C@@H](O[C@@H]3O[C@H](CO)[C@@H](O)[C@H](O)[C@H]3O)[C@H]12`, 1.02.
In the case of `CCC(=O)OCC(=O)[C@@]1(OC(=O)CC)[C@H](C)CC2C3C([C@@H](O)C[C@@]21C)[C@@]1(C)C=CC(=O)C=C1C[C@H]3Cl` (stereo partly specified), the normalized bacterial growth amounted to 0.767.
Take `CSc1ccc(C(=O)c2[nH]c(=O)[nH]c2C)cc1` [Enoximone]: the normalized bacterial growth is 1.12.
The figure for `CC(C)(S)[C@@H](N)C(=O)O` is 1.25; for `Cc1cc(C(=O)NNCc2ccccc2)no1` [Isocarboxazid] it is 1.16; for `O=C(O)CCCN1C(=O)c2cccc3cccc(c23)C1=O` it is 0.993.
In turn, `CO[C@H]1C[C@H](O[C@H]2[C@H](C)[C@@H](O[C@@H]3O[C@H](C)C[C@H](N(C)C)[C@H]3OC(C)=O)[C@@H](C)C[C@@]3(CO3)C(=O)[C@H](C)[C@@H](OC(C)=O)[C@@H](C)[C@@H](C)OC(=O)[C@@H]2C)O[C@@H](C)[C@@H]1OC(C)=O` gave a normalized bacterial growth of 0.765 ± 0.13.
Regarding `CO[C@H]1C[C@H](O[C@H]2[C@H](C)[C@@H](O[C@@H]3O[C@H](C)C[C@H](N(C)C)[C@H]3OC(C)=O)[C@@H](C)C[C@@]3(CO3)C(=O)[C@H](C)[C@@H](OC(C)=O)[C@@H](C)[C@@H](C)OC(=O)[C@@H]2C)O[C@@H](C)[C@@H]1OC(C)=O` [Troleandomycin], the normalized bacterial growth turned out to be 0.572.
Compound `COc1ccc(-c2ccc(=N)n(CCCC(=O)O)n2)cc1` [Gabazine] yielded a normalized bacterial growth of 1.1.
With `COc1ccc(-c2ccc(=N)n(CCCC(=O)O)n2)cc1`, the normalized bacterial growth was 0.943.
In the case of `CCCCCCCCCCC[C@@H](C[C@@H]1OC(=O)[C@H]1CCCCCC)OC(=O)[C@H](CC(C)C)NC=O` it was 0.986.
In the case of `COc1ccc(-c2oc3ccccc3c(=O)c2OC)cc1` it was 0.825.
In the case of `S=C(Nc1ccccc1)Nc1nccs1` [1-Phenyl-3-(2-thiazolyl)-2-thiourea] it was 0.839; in that of `COc1cc(C/C=C/c2ccccc2)c(OC)cc1O`, 0.61.
The compound `O=C1O[C@H](CO)[C@@H](O)[C@H](O)[C@H]1O` displayed a normalized bacterial growth of 1.15.
`CCCCCCCCCCCCCC/C(C(=O)O)=C(\C)C(=O)O` registered a normalized bacterial growth of 0.649.
The figure for `CC1(C)CCC[C@]2(C)[C@@H]3[C@H]1[C@@H](O)[C@@]2(C)C[C@H]3O` is 1.11; for `COc1cc2ncc(-c3ccccc3)nc2cc1OC` [Tyrphostin AG 1296] it is 1.19.
The figure for `COc1ccc(-c2c(O)c3c(OC)c4c(cc3oc2=O)OC(C)(C)C=C4)cc1` is 0.837.
The figure for `CC(=O)NO` is 0.965; for `CN(C)CC/C=C1\c2ccccc2CSc2ccccc21` [Dosulepin hydrochloride] it is 0.855; for `CN1CCCN=C1COC(=O)C(O)(c1ccccc1)C1CCCCC1` (stereo unspecified) it is 1.
Turning to `CC(C)(Oc1ccc(Cl)cc1)C(=O)O` [Clofibric acid], the normalized bacterial growth came out at 1.41.
The figure for `CCC(=O)OC1[C@@H]2CC3=C4CC(=O)O[C@@H](c5ccoc5)[C@]4(C)CCC3[C@@](C)(C2=O)[C@@H](CC(=O)OC)C1(C)C` (stereo partly specified) is 0.917; for `COC(=O)C[C@H]1C(C)(C)C(=O)[C@@H]2CC3=C(CC[C@]4(C)C3=CC(=O)O[C@H]4c3ccoc3)[C@@]1(C)C2=O` it is 1.01.
`C=C1C(=O)[C@]23[C@H](CC[C@@H]1[C@@H]2O)[C@]12CO[C@@]3(O)[C@H](O)[C@H]1C(C)(C)CC[C@@H]2O` came in with a normalized bacterial growth of 1.32.
`COc1cc(O)cc(O)c1C(C)=O` showed a normalized bacterial growth of 0.816.
With `CS(=O)(=O)c1ccc(C2=C(c3ccccc3)C(=O)OC2)cc1`, the normalized bacterial growth was 1.23.
Regarding `COc1ccc2c(c1OC)OC[C@@H](c1ccc(OC)c(OC)c1OC)C2`, the normalized bacterial growth worked out at 0.621.
In the case of `CN(C)CCC=C1c2ccccc2CCc2ccccc21` [Amitriptyline hydrochloride] it was 0.977.
In the case of `Cc1[nH]c(=O)c(C#N)cc1-c1ccncc1` [Milrinone] it was 1.22; in that of `C[C@]12CC[C@H]3C(=CCc4cc(O)ccc43)[C@@H]1CCC2=O` [Equilin], 0.766.
In the case of `C[C@]12CC[C@H]3C(=CCc4cc(O)ccc43)[C@@H]1CCC2=O` it was 0.817.
Take `C[C@]12C=CC(=O)C=C1CC[C@@H]1[C@@H]2[C@@H](O)C[C@@]2(C)[C@H]1CC[C@]2(O)C(=O)COP(=O)(O)O`: the normalized bacterial growth is 0.941.
Regarding `CCCCCC/C=C\CCCCCCCc1cccc(O)c1C(=O)O`, the normalized bacterial growth came to 1.12.
`N=C(N)N` displayed a normalized bacterial growth of 1.01.
Turning to `NC(N)=NCCNS(=O)(=O)c1cccc2cnccc12` [HA-1004 hydrochloride], the normalized bacterial growth was 1.29.
Compound `Cc1c(C(N)=O)cc([N+](=O)[O-])cc1[N+](=O)[O-]` returned a normalized bacterial growth of 1.03.
As for `C=C[C@H]1CN2CC[C@H]1C[C@@H]2[C@@H](O)c1ccnc2ccc(OC)cc12` [Quinidine hydrochloride monohydrate], the normalized bacterial growth turned out to be 1.08.
In the case of `C=C[C@H]1CN2CC[C@H]1C[C@@H]2[C@@H](O)c1ccnc2ccc(OC)cc12` [Quinidine sulfate] it was 0.838; in that of `C=C[C@H]1CN2CC[C@H]1C[C@@H]2[C@@H](O)c1ccnc2ccc(OC)cc12`, 1.16 and 0.939; in that of `CNC(=O)[C@H]1O[C@@H](n2cnc3c(NCc4cccc(I)c4)ncnc32)[C@H](O)[C@@H]1O`, 0.897.
The figure for `COc1ccc(C2C(=O)c3ccccc3C2=O)cc1` is 1.11; for `Cc1cccc(C)c1NC(=O)C1CCCCN1C` (stereo unspecified) it is 0.808.
In the case of `COc1cc(/C=C/C(=O)N2CCC=CC2=O)cc(OC)c1OC` it was 0.876.
As for `CN(C)c1ccc2nc3ccc(=[N+](C)C)cc-3sc2c1`, the normalized bacterial growth was found to be 0.793.
`COc1cc(OC)c2c(OC)c(-c3ccc4c(c3)OCO4)c(=O)oc2c1` showed a normalized bacterial growth of 0.849.
The figure for `CC(=O)Oc1ccc2c(c1)CC[C@@H]1[C@@H]2CC[C@]2(C)[C@@H](OC(C)=O)CC[C@@H]12` is 0.837.
